# Measurements from the supplement of paper PMC10011410.
# Assays:
# [1] = system: U-2 OS; experiment: AUC of caspase 3/7-positive object count (AUC (object count x time)); higher = more apoptotic or dead cells
# Protocol: (§1)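 Live-cell Incucyte imaging of U-2 OS cells with Caspase-3/7 Green and Cytotox Red reagents. Compounds were tested mostly at 5, 10 and 20 uM, and cells were imaged every 4 h for up to 60 h. Value is the area under the curve of positive object counts over time, per channel: green = caspase 3/7, red = membrane-compromised, overlap = both.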
# [2] = system: U-2 OS; experiment: AUC of Cytotox red (membrane-compromised) object count (AUC (object count x time)); higher = more apoptotic or dead cells
# Protocol: as §1
Structure (SMILES),AUC of caspase 3/7-positive object count ([1]; 5 µM),AUC of caspase 3/7-positive object count ([1]; 10 µM),AUC of caspase 3/7-positive object count ([1]; 20 µM),AUC of caspase 3/7-positive object count ([1]; 40 µM),AUC of caspase 3/7-positive object count ([1]; 80 µM),AUC of Cytotox red ([2]; 5 µM),AUC of Cytotox red ([2]; 10 µM),AUC of Cytotox red ([2]; 20 µM),AUC of Cytotox red ([2]; 40 µM),AUC of Cytotox red ([2]; 80 µM),AUC of caspase 3/7-positive object count ([1]; 1.25 µM),AUC of Cytotox red ([2]; 1.25 µM)
CC(Cc1ccc(O)c(O)c1)C(C)Cc1ccc(O)c(O)c1 (stereo not drawn),30.4,43.2,41.1,340,1450,26.8,29.8,33,231,510,,
Nc1nc(-c2ccccc2)ns1,24,51.3,47.1,,,21.5,42.5,52.1,,,,
C=C1[C@@H](C)[C@H]2[C@H](Cc3ccccc3)NC(=O)[C@]23OC(=O)/C=C/[C@H](O)CCC[C@@H](C)C/C=C/[C@H]3[C@@H]1O,107,149,245,,,128,166,280,,,,
O=C1CCC(=O)N1c1ccc(O)cc1,45.7,240,56.7,,,42.1,263,53.8,,,,
C/C1=C/C(=O)O[C@@H]2C[C@@H](CC[C@H](C)/C=C\CC1)O[C@@](O)([C@@H]1CSC(=O)N1)C2,269,389,596,,,283,358,487,,,,
O=C(Nc1nc(-c2ccccc2)ns1)c1cccs1,38.6,55.4,34.6,,,43.4,43.9,31.5,,,,
Cn1c(SC2=CS(=O)(=O)c3ccccc32)nnc1-c1ccc(O)cc1,383,490,206,,,245,328,213,,,,
C[C@@H]1O[C@@H](O[C@H]2[C@H](O[C@H]3CC[C@@]4(C)[C@@H](CC[C@]5(C)[C@@H]4CC=C4[C@@H]6CC(C)(C)CC[C@]6(C(=O)O)CC[C@]45C)[C@]3(C)CO)OC[C@H](O[C@@H]3O[C@H](CO)[C@@H](O)[C@H](O)[C@H]3O)[C@@H]2O)[C@H](O)[C@H](O)[C@H]1O,128,136,122,,,2180,2090,1770,,,,
C=CC(=O)Nc1ccc(CN2C(=O)N(c3cc(OC)cc(OC)c3)Cc3cnc(Nc4ccc(N5CCN(C)CC5)cc4)nc32)cc1,51.9,88.4,203,,,26.8,58.8,63.9,,,,
CC1OC2=C(C(=O)C(=O)c3ccccc32)C1(C)C (stereo not drawn),619,697,760,,,669,890,1020,,,,
O=C1C(Cl)=C(NCCN2CCOCC2)C(=O)c2ncccc21,546,567,634,,,419,474,600,,,,
Cc1[nH]c2ccccc2c1CCNCc1ccc(/C=C/C(=O)NO)cc1,914,1000,1020,,,981,1300,1490,,,,
COc1ccc(/C(Cl)=C(\C=O)c2ccc(OC)cc2)cc1,97.9,81.8,326,,,81.2,74,277,,,,
CC(=O)O[C@H]1C(=O)[C@@]2(C)[C@H]([C@H](OC(=O)c3ccccc3)[C@]3(O)C[C@H](OC(=O)[C@H](O)[C@@H](NC(=O)c4ccccc4)c4ccccc4)C(C)=C1C3(C)C)[C@]1(OC(C)=O)CO[C@@H]1C[C@@H]2O,361,,217,,,409,,291,,,417,495
CCOc1cc2ncc(C#N)c(Nc3ccc(OCc4ccccn4)c(Cl)c3)c2cc1NC(=O)/C=C/CN(C)C,53.5,105,1120,,,51.2,74.1,1070,,,,
C=C1[C@@H](C)[C@H]2[C@H](Cc3ccccc3)NC(=O)[C@]23[C@H](OC(C)=O)/C=C/[C@@](C)(O)C(=O)[C@@H](C)C/C=C/[C@H]3[C@@H]1O,232,294,368,,,257,362,357,,,,
Cl.Nc1ccc(O)c2ccccc12,,58.8,,,,51.2,51.9,619,,,,
CCOC(=O)C1=C(C)NC(=S)N[C@@H]1c1cccc(O)c1,69,53.5,121,,,53.5,48.5,34.4,,,,
O=C(OC[C@H]1O[C@@H](OC(=O)c2cc(O)c(O)c(OC(=O)c3cc(O)c(O)c(O)c3)c2)[C@H](OC(=O)c2cc(O)c(O)c(OC(=O)c3cc(O)c(O)c(O)c3)c2)[C@@H](OC(=O)c2cc(O)c(O)c(OC(=O)c3cc(O)c(O)c(O)c3)c2)[C@@H]1OC(=O)c1cc(O)c(O)c(OC(=O)c2cc(O)c(O)c(O)c2)c1)c1cc(O)c(O)c(OC(=O)c2cc(O)c(O)c(O)c2)c1,38.6,36.8,238,,,0.622,11.1,-0.336,,,,
Oc1ccc2ccccc2c1SSc1c(O)ccc2ccccc12,35,282,396,,,41.4,264,327,,,,
CC[C@H]1CN2CCc3cc(OC)c(OC)cc3[C@@H]2C[C@@H]1C[C@H]1NCCc2cc(OC)c(OC)cc21.Cl.Cl.O,416,677,797,,,382,655,677,,,,
O=[N+]([O-])c1cc(Br)c2nsnc2c1Sc1ncnc2nc[nH]c12,792,1160,1430,,,348,804,1310,,,,
O.O=P1(N(CCCl)CCCl)NCCCO1 (stereo not drawn),23.2,24.4,21,,,52.6,51.7,42.7,,,,
CC(C)=C[C@@H]1CO[C@]23C[C@]4(CO2)[C@H](CC[C@@H]2[C@@]5(C)CC[C@H](O[C@@H]6OC[C@H](O)[C@H](O[C@@H]7O[C@H](CO)[C@@H](O)[C@H](O)[C@H]7O)[C@H]6O[C@@H]6O[C@@H](CO)[C@H](O)[C@H]6O)C(C)(C)[C@@H]5CC[C@]24C)[C@H]3[C@@]1(C)O,203,129,175,,,323,1420,1650,,,,
O=C(O)C1=CC(=C(c2ccc(O)c(C(=O)O)c2)c2ccc(O)c(C(=O)O)c2)C=CC1=O,67.8,55.9,28.3,,,27.5,14,3.71,,,,
O=c1c2ccccc2[se]n1-c1ccccc1,68.9,342,859,,,41.3,532,2830,,,,

# Sorted by heavy-atom count (falling): part of the list above.
Structure (SMILES),AUC of caspase 3/7-positive object count ([1]; 5 µM),AUC of caspase 3/7-positive object count ([1]; 10 µM),AUC of caspase 3/7-positive object count ([1]; 20 µM),AUC of caspase 3/7-positive object count ([1]; 40 µM),AUC of caspase 3/7-positive object count ([1]; 80 µM),AUC of Cytotox red ([2]; 5 µM),AUC of Cytotox red ([2]; 10 µM),AUC of Cytotox red ([2]; 20 µM),AUC of Cytotox red ([2]; 40 µM),AUC of Cytotox red ([2]; 80 µM),AUC of caspase 3/7-positive object count ([1]; 1.25 µM),AUC of Cytotox red ([2]; 1.25 µM)
CCOc1cc2ncc(C#N)c(Nc3ccc(OCc4ccccn4)c(Cl)c3)c2cc1NC(=O)/C=C/CN(C)C,53.5,105,1120,,,51.2,74.1,1070,,,,
C=C1[C@@H](C)[C@H]2[C@H](Cc3ccccc3)NC(=O)[C@]23OC(=O)/C=C/[C@H](O)CCC[C@@H](C)C/C=C/[C@H]3[C@@H]1O,107,149,245,,,128,166,280,,,,
Oc1ccc2ccccc2c1SSc1c(O)ccc2ccccc12,35,282,396,,,41.4,264,327,,,,
O=C1C(Cl)=C(NCCN2CCOCC2)C(=O)c2ncccc21,546,567,634,,,419,474,600,,,,
CCOC(=O)C1=C(C)NC(=S)N[C@@H]1c1cccc(O)c1,69,53.5,121,,,53.5,48.5,34.4,,,,

# These are raw signals, not scaled to a control.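 Values average three technical replicates, each on its own plate. On all plates, reagent-free control wells corrected for intrinsic cell fluorescence and DMSO-treated wells acted as vehicle controls. No hit or active cutoff is set for these live-cell readings.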
